No constants are given. Whether binding was seen depends on the method and setting. Binding seen in cells or lysates may run through a third protein. Some entries that bind do so weakly or less than the wild type.
Assays:
[1] = molecular target: NMDA receptor GluN1 subunit, endogenous in mouse primary microglia and hippocampal neurons (mouse (endogenous in primary microglia and neurons)) (UniProt P35438); test: proximity ligation; in situ PLA on fixed, permeabilised mouse hippocampal primary neurons with anti-A2AR and anti-GluN1 antibodies; from wild type (control) or APPSw,Ind mice
[2] = molecular target: NMDA receptor GluN1 subunit, endogenous in mouse primary microglia and hippocampal neurons (mouse (endogenous in primary microglia and neurons)) (UniProt P35438); test: proximity ligation; in situ PLA on fixed, permeabilised mouse primary microglia with anti-A2AR and anti-GluN1 antibodies; resting or activated with 1 uM LPS and 200 U/mL IFN-gamma; from wild type (control) or APPSw,Ind mice
[3] = molecular target: reconstituted NMDA receptor fused to RLuc (GluN1-RLuc co-expressed with GluN2B) (UniProt Q05586); test: FRET or BRET; BRET saturation in living HEK-293T cells 48 h after transfection; constant GluN1-RLuc (0.3 ug cDNA) and GluN2 (0.2 ug cDNA), increasing A2AR-YFP (0.1-0.5 ug cDNA) or caldendrin-YFP (0.1-0.7 ug cDNA); 5 uM coelenterazine H; net BRET in mBU

By UniProt entry, the sequences of proteins in these tests, tags left out. Where a name states a change or a piece, a line headed by the entry shows the natural chain unless it says otherwise.
UniProt Q60613: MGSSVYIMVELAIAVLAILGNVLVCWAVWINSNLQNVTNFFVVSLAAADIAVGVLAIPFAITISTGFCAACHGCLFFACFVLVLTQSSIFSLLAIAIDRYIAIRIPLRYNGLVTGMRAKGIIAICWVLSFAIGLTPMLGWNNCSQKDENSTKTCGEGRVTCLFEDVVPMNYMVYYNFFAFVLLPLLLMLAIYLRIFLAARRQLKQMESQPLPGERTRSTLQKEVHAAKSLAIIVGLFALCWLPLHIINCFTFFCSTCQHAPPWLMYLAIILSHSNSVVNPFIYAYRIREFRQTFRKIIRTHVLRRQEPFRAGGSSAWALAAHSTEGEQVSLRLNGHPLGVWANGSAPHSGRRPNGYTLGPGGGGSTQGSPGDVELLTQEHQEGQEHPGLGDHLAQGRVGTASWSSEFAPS
UniProt Q9NZU7: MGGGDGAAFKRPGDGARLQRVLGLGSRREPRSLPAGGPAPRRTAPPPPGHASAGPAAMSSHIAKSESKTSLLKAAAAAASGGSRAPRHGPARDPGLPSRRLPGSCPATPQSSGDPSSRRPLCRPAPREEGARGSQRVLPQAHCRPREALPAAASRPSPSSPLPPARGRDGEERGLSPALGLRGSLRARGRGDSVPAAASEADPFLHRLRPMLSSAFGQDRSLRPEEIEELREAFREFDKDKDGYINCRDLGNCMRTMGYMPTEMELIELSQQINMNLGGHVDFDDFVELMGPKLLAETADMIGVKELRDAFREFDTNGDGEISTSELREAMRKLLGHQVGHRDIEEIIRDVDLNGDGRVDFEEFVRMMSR

“adenosine A2A receptor, endogenous in mouse primary microglia and hippocampal neurons (from UniProt Q60613 1-410)” was tested. Which binding [1] did it give?
Its binding is “binds”.

And the binding [2]?
The binding was “binds”.

For “caldendrin-YFP fusion protein (from UniProt Q9NZU7 1-370)”, which binding [3] is on record?
The binding was “no binding”.

Reference: paper PMC7290564
